PubChem BioAssay AID1671195 – Yale University, 2021
In all, the deposit lists about 22,000 reagents; this is an unselected part. About 1,510 of all reagents (6.9%) were called active. 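Active includes knockdowns raising or lowering LDL uptake; positive z-scores mean more uptake, negative mean less.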

- Aim: 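Regulators of LDL receptor activity judged by labelled LDL uptake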 (primary screen)
- Cell system: human Huh7 hepatoma cells
- Reagent: siRNA pool against human genes, 18 nM
- Timing: about 2 to 2.5 days of knockdown, then 8 h LDL uptake
- Conditions: DiI-labelled LDL at 30 µg/ml for 8 h, in lipoprotein-deficient serum medium
- Measurement: 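Fluorescent LDL signal imaged in cells, scaled to the plate median, robust z-score for each replicate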
- Scale: robust z-score: higher = more LDL uptake after knockdown
- Hit rule: 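a gene counts as active if at least two replicate z-scores exceed ±2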

What is on record for NASP?
robust z-score, replicate 1: 0.884; robust z-score, replicate 2: 0.566; robust z-score, replicate 3: 1.03; call: inactive

What did the screen give for SUPT5H?
robust z-score, replicate 1: -0.431; robust z-score, replicate 2: -0.563; robust z-score, replicate 3: -0.591; call: inactive

With UBE2Q1, what does the deposit list?
robust z-score, replicate 1: 0.483; robust z-score, replicate 2: 0.765; robust z-score, replicate 3: -0.814; call: inactive

For POLR1E, what was measured?
robust z-score, replicate 1: 1.61; robust z-score, replicate 2: 1.9; robust z-score, replicate 3: 2.92; call: inactive

What is on record for UBL7?
robust z-score, replicate 1: 0.293; robust z-score, replicate 2: 0.344; robust z-score, replicate 3: 0.237; call: inactive

With B3GNT3, what was measured?
robust z-score, replicate 1: 0.571; robust z-score, replicate 2: 2.33; robust z-score, replicate 3: 1.45; call: inactive

With NMRK2, what does the deposit list?
robust z-score, replicate 1: 0.178; robust z-score, replicate 2: 0.0638; robust z-score, replicate 3: -0.522; call: inactive

How did the screen score YLPM1?
robust z-score, replicate 1: -0.276; robust z-score, replicate 2: -1.31; robust z-score, replicate 3: -0.775; call: inactive

Which result is listed for TNNT1?
robust z-score, replicate 1: 0.122; robust z-score, replicate 2: -0.839; robust z-score, replicate 3: 1.54; call: inactive

For RPL35A, how do the results read?
robust z-score, replicate 1: -0.975; robust z-score, replicate 2: -1.38; robust z-score, replicate 3: -1.42; call: inactive

For DDX39B, how do the results read?
robust z-score, replicate 1: -0.00876; robust z-score, replicate 2: -0.0252; robust z-score, replicate 3: -0.0499; call: inactive

For CAMTA2, how do the results read?
robust z-score, replicate 1: -0.0235; robust z-score, replicate 2: -0.748; robust z-score, replicate 3: 1.37; call: inactive

For TTF2, what was measured?
robust z-score, replicate 1: 3.03; robust z-score, replicate 2: 4.49; robust z-score, replicate 3: 3.27; call: active

What is on record for LGALS3BP?
robust z-score, replicate 1: -0.583; robust z-score, replicate 2: -1.27; robust z-score, replicate 3: -0.597; call: inactive

With HSBP1, what does the deposit list?
robust z-score, replicate 1: -0.341; robust z-score, replicate 2: -0.705; robust z-score, replicate 3: -0.501; call: inactive

With MRPS18A, what does the deposit list?
robust z-score, replicate 1: -1.14; robust z-score, replicate 2: -1.77; robust z-score, replicate 3: -1.27; call: inactive

What did the screen give for IL12B-AS1?
robust z-score, replicate 1: -0.543; robust z-score, replicate 2: -1.06; robust z-score, replicate 3: -0.883; call: inactive

How did the screen score GABARAPL2?
robust z-score, replicate 1: 0.757; robust z-score, replicate 2: -0.072; robust z-score, replicate 3: 1.02; call: inactive

What is on record for SVBP?
robust z-score, replicate 1: -0.00184; robust z-score, replicate 2: 0.607; robust z-score, replicate 3: 0.208; call: inactive

What is on record for GPR142?
robust z-score, replicate 1: -0.406; robust z-score, replicate 2: 0.439; robust z-score, replicate 3: -0.353; call: inactive

For KCNN4, what does the deposit list?
robust z-score, replicate 1: 4.46; robust z-score, replicate 2: 3.42; robust z-score, replicate 3: 4.52; call: active

What is on record for GOLGA2?
robust z-score, replicate 1: -0.886; robust z-score, replicate 2: -0.597; robust z-score, replicate 3: -0.766; call: inactive

For MRGPRF, how do the results read?
robust z-score, replicate 1: -0.376; robust z-score, replicate 2: -0.359; robust z-score, replicate 3: -0.109; call: inactive

How did the screen score ZBED1?
robust z-score, replicate 1: 1.09; robust z-score, replicate 2: 0.308; robust z-score, replicate 3: 1.08; call: inactive

Looked up above.
Value for GPR142 under “robust z-score, replicate 2”: 0.439
TNNT1, robust z-score, replicate 1 → 0.122
Result for GABARAPL2 in “robust z-score, replicate 1”: 0.757
